No constants are given. Whether binding was seen depends on the method and setting. For some of these results: In cells and extracts the contact can be indirect. Some binding calls cover weakened binding; strength is not graded here. Sequences can lack the tags named with a protein. Values belong to the binder of their own block, whether it stands above or below them.
How the values were obtained:
[1] = substrate: CO tagged with split YFP (Arabidopsis thaliana) (UniProt Q39057); assay: split reporter; BiFC with split YFP in Nicotiana benthamiana leaves co-infiltrated with Agrobacterium; confocal microscopy 2-3 days after infiltration
[2] = target: MYC-CO (Arabidopsis thaliana) (UniProt Q39057); assay: co-IP; total protein extracts of 14-day-old transgenic Arabidopsis seedlings expressing YFP-MRG2 (estrogen-induced) and MYC-CO; IP with anti-MYC affinity gel, blot with anti-GFP
[3] = target: GST-fused CONSTANS (CO) (Arabidopsis thaliana) (UniProt Q39057); assay: pull-down; GST-fused CO (or GST alone) with His-tagged MRG2, MRG2C or MRG2N, purified from E. coli; protocol of ref. 51; both purified

The chains behind the UniProt entries cited, without tags or fusion partners.
UniProt Q39057: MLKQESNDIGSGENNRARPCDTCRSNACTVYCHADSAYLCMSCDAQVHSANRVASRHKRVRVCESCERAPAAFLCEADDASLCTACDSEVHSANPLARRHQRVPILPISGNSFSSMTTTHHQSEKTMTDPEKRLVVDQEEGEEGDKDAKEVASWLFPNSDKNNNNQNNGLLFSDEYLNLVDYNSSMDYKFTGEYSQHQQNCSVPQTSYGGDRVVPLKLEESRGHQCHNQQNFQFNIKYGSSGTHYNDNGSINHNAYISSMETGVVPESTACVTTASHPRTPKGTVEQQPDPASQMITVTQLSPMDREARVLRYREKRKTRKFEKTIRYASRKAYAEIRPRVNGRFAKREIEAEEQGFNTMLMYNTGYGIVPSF

- binding [1]: binds
B1: MRG2C tagged with split YFP (domain or fragment, UniProt Q4V3E2 162-327)
chain: SDNLLSFNIPPALRKQLLDDFEFVTQMQKLVQLPRSPNVDGILKKYIDSQMKKHGRVTDSLEEILKGLRCYFDKALPVMLLYNNERKQYEESVSGGVSPSTVYGAEHLLRLFVKLPELLVHVNMAEETLKELQDNFVDILRFLRKNQSVLFVSTYKAVEEMEKKEG

- binding [1]: binds
B2: MRG2 tagged with split YFP (protein, UniProt Q4V3E2 1-327)
chain: MGSPNAAAETDLTTDDFIGDTRRDSGSDTETNTDCDGEDLPLLLLPAPPGHFEEGERVLAKHSDCFYEAKVLKVEFKDNEWKYFVHYIGWNKSWDEWIRLDCLLKHSDENIEKQKEQGLKQQGIKSAMAWKVSKMKPRSPNVARGRKRKQDSVDTEKNVLPSDNLLSFNIPPALRKQLLDDFEFVTQMQKLVQLPRSPNVDGILKKYIDSQMKKHGRVTDSLEEILKGLRCYFDKALPVMLLYNNERKQYEESVSGGVSPSTVYGAEHLLRLFVKLPELLVHVNMAEETLKELQDNFVDILRFLRKNQSVLFVSTYKAVEEMEKKEG

- binding [2]: binds
B3: YFP-MRG2 (protein, UniProt Q4V3E2 1-327)
chain: B2 chain

- binding [3]: no binding
B4: N-terminal His-tagged chromodomain of MRG2 (His-MRG2N) (domain or fragment, UniProt Q4V3E2 1-123)
chain: MGSPNAAAETDLTTDDFIGDTRRDSGSDTETNTDCDGEDLPLLLLPAPPGHFEEGERVLAKHSDCFYEAKVLKVEFKDNEWKYFVHYIGWNKSWDEWIRLDCLLKHSDENIEKQKEQGLKQQG

Source: publication PMC4161306, “Regulation of Arabidopsis Flowering by the Histone Mark Readers MRG1/2 via Interaction with CONSTANS to Modulate FT Expression” (PLoS Genetics, 2014)
